# Data as given in the supplement of paper PMC8728848.
# This is one part of the list.
# Key:
# Experiment in all cases: glycan array binding signal (z-score within array); higher = stronger binding
# Conditions in all cases: glycan notation: IUPAC condensed, linker removed
# [1] = molecular target: GalNAc3S(b1-4)[Fuc(a1-3)]GlcNAc
# In short: (§1)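 From the Consortium for Functional Glycomics database, 3228 arrays were curated, keeping only those whose protein sequence was available. Binding is given as a within-array Z-score averaged across arrays sharing a protein sequence and across linkers. Negative Z-scores can be read as non-binding.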
# GalNAc4S6S(b1-4)GlcNAc = molecular target: GalNAc4S6S(b1-4)GlcNAc
# In short: as §1
# GalNAc6S(b1-4)GlcNAc = molecular target: GalNAc6S(b1-4)GlcNAc
# In short: as §1
# Glc(a1-4)Glc = molecular target: Glc(a1-4)Glc
# In short: as §1
# [2] = molecular target: Glc(a1-4)Glc(a1-4)Glc(a1-4)Glc
# In short: as §1
# Glc(a1-6)Glc(a1-6)Glc = molecular target: Glc(a1-6)Glc(a1-6)Glc
# In short: as §1
# [3] = molecular target: Glc(a1-6)Glc(a1-6)Glc(a1-6)Glc
# In short: as §1
# Glc(b1-4)Glc = molecular target: Glc(b1-4)Glc
# In short: as §1
# Glc(b1-6)Glc = molecular target: Glc(b1-6)Glc
# In short: as §1
# GlcA(b1-3)Gal = molecular target: GlcA(b1-3)Gal
# In short: as §1
# GlcA(b1-3)GlcNAc = molecular target: GlcA(b1-3)GlcNAc
# In short: as §1
# GlcA(b1-6)Gal = molecular target: GlcA(b1-6)Gal
# In short: as §1
# [4] = molecular target: GlcA3S(b1-3)Gal(b1-4)GlcNAc(b1-2)Man
# In short: as §1
# [5] = molecular target: GlcA3S(b1-3)Gal(b1-4)GlcNAc(b1-3)Gal(b1-4)Glc
# In short: as §1
# [6] = molecular target: GlcNAc(a1-3)Gal(b1-4)GlcNAc
# In short: as §1
# [7] = molecular target: GlcNAc(a1-4)Gal(b1-3)GlcNAc
# In short: as §1
# [8] = molecular target: GlcNAc(a1-4)Gal(b1-4)GalNAc
# In short: as §1
# [9] = molecular target: GlcNAc(a1-4)Gal(b1-4)GlcNAc
# In short: as §1
# [10] = molecular target: GlcNAc(a1-4)Gal(b1-4)GlcNAc(b1-3)Gal(b1-4)Glc
# In short: as §1
# [11] = molecular target: GlcNAc(a1-4)Gal(b1-4)GlcNAc(b1-3)Gal(b1-4)GlcNAc
# In short: as §1
# [12] = molecular target: GlcNAc(a1-4)Gal(b1-4)GlcNAc(b1-3)Gal(b1-4)GlcNAc(b1-3)Gal(b1-4)GlcNAc
# In short: as §1
# [13] = molecular target: GlcNAc(a1-4)Gal(b1-4)GlcNAc(b1-3)Gal(b1-4)[Fuc(a1-3)]GlcNAc(b1-3)Gal(b1-4)[Fuc(a1-3)]GlcNAc
# In short: as §1
# [14] = molecular target: GlcNAc(a1-6)Gal(b1-4)GlcNAc
# In short: as §1
# [15] = molecular target: GlcNAc(b1-2)Gal(b1-3)GalNAc
# In short: as §1
# [16] = molecular target: GlcNAc(b1-2)Man(a1-3)[GlcNAc(b1-2)Man(a1-6)]Man(b1-4)GlcNAc(b1-4)GlcNAc
# In short: as §1
# [17] = molecular target: GlcNAc(b1-2)Man(a1-3)[GlcNAc(b1-2)Man(a1-6)]Man(b1-4)GlcNAc(b1-4)[Fuc(a1-6)]GlcNAc
# In short: as §1
# [18] = molecular target: GlcNAc(b1-2)Man(a1-3)[GlcNAc(b1-4)][GlcNAc(b1-2)Man(a1-6)]Man(b1-4)GlcNAc(b1-4)GlcNAc
# In short: as §1
# [19] = molecular target: GlcNAc(b1-2)Man(a1-3)[GlcNAc(b1-4)][GlcNAc(b1-2)Man(a1-6)]Man(b1-4)GlcNAc(b1-4)[Fuc(a1-6)]GlcNAc
# In short: as §1
# [20] = molecular target: GlcNAc(b1-2)[GlcNAc(b1-4)]Man(a1-3)[GlcNAc(b1-2)Man(a1-6)]Man(b1-4)GlcNAc(b1-4)GlcNAc
# In short: as §1
# [21] = molecular target: GlcNAc(b1-2)[GlcNAc(b1-4)]Man(a1-3)[GlcNAc(b1-4)][GlcNAc(b1-2)Man(a1-6)]Man(b1-4)GlcNAc(b1-4)GlcNAc
# In short: as §1
# [22] = molecular target: GlcNAc(b1-2)[GlcNAc(b1-4)]Man(a1-3)[GlcNAc(b1-4)][GlcNAc(b1-2)[GlcNAc(b1-6)]Man(a1-6)]Man(b1-4)GlcNAc(b1-4)GlcNAc
# In short: as §1
# [23] = molecular target: GlcNAc(b1-2)[GlcNAc(b1-4)]Man(a1-3)[GlcNAc(b1-4)][GlcNAc(b1-2)[GlcNAc(b1-6)]Man(a1-6)]Man(b1-4)GlcNAc(b1-4)[Fuc(a1-6)]GlcNAc
# In short: as §1
# [24] = molecular target: GlcNAc(b1-2)[GlcNAc(b1-6)]Man(a1-6)[GlcNAc(b1-2)Man(a1-3)]Man(b1-4)GlcNAc(b1-4)GlcNAc
# In short: as §1
# [25] = molecular target: GlcNAc(b1-2)[GlcNAc(b1-6)]Man(a1-6)[GlcNAc(b1-2)Man(a1-3)]Man(b1-4)GlcNAc(b1-4)[Fuc(a1-6)]GlcNAc
# In short: as §1
# [26] = molecular target: GlcNAc(b1-2)[GlcNAc(b1-6)]Man(a1-6)[GlcNAc(b1-4)][GlcNAc(b1-2)Man(a1-3)]Man(b1-4)GlcNAc(b1-4)GlcNAc
# In short: as §1
# GlcNAc(b1-3)Fuc = molecular target: GlcNAc(b1-3)Fuc
# In short: as §1
# GlcNAc(b1-3)Gal = molecular target: GlcNAc(b1-3)Gal
# In short: as §1
# [27] = molecular target: GlcNAc(b1-3)Gal(b1-3)GalNAc
# In short: as §1
binder,measurement,setting,value
Aap brpt (Staphylococcus epidermidis) (protein) VDGDPITSTEEIPFDKKREFDPNLAPGTEKVVQKGEPGTKTITTPTTKNPLTGEKVGEGEPTEKITKQPVDEIVHYGGEEIKTGHKDEFDPNAPKGSQTTQPGKPGVKNPDTGEVVTPPVDDVTKYGPVDGDPITSTEEIPFDKKREFDPNLAPGTEKVVQKGEPGTKTITTPTTKNPLTGEKVGEGEPTEKITKQPVDEIVHYGGEEIKPGHKDEFDPNAPKGSQEDVPGKPGVKNPDTGEVVTPPVDDVTKYGPVDGDSITSTEEIPFDKKREFDPNLAPGTEKVVQKGEPGTKTITTPTTKNPLTGEKVGEGEPTEKITKQPVDEIVHYGGEQIPQGHKDEFDPNAPVDSKTEVPGKPGVKNPDTGEVVTPPVDDVTKYGPVDGDSITSTEEIPFDKKREFDPNLAPGTEKVVQKGEPGTKTITTPTTKNPLTGEKVGEGKSTEKVTKQPVDEIVEYGPTK,glycan array binding signal (z-score),[1],0.52
same,glycan array binding signal (z-score),GalNAc4S6S(b1-4)GlcNAc,1.49
same,glycan array binding signal (z-score),GalNAc6S(b1-4)GlcNAc,1.25
same,glycan array binding signal (z-score),Glc(a1-4)Glc,-1.07
same,glycan array binding signal (z-score),[2],1.83
same,glycan array binding signal (z-score),Glc(a1-6)Glc(a1-6)Glc,0.623
same,glycan array binding signal (z-score),[3],-1.53
same,glycan array binding signal (z-score),Glc(b1-4)Glc,-1.47
same,glycan array binding signal (z-score),Glc(b1-6)Glc,0.662
same,glycan array binding signal (z-score),GlcA(b1-3)Gal,-0.602
same,glycan array binding signal (z-score),GlcA(b1-3)GlcNAc,-0.165
same,glycan array binding signal (z-score),GlcA(b1-6)Gal,-0.324
same,glycan array binding signal (z-score),[4],0.61
same,glycan array binding signal (z-score),[5],-0.353
same,glycan array binding signal (z-score),[6],0.277
same,glycan array binding signal (z-score),[7],-0.124
same,glycan array binding signal (z-score),[8],-1.15
same,glycan array binding signal (z-score),[9],0.955
same,glycan array binding signal (z-score),[10],-1.29
same,glycan array binding signal (z-score),[11],0.49
same,glycan array binding signal (z-score),[12],0.541
same,glycan array binding signal (z-score),[13],-0.133
same,glycan array binding signal (z-score),[14],0.058
same,glycan array binding signal (z-score),[15],-1.55
same,glycan array binding signal (z-score),[16],1.01
same,glycan array binding signal (z-score),[17],0.002
same,glycan array binding signal (z-score),[18],-0.949
same,glycan array binding signal (z-score),[19],1.38
same,glycan array binding signal (z-score),[20],1.57
same,glycan array binding signal (z-score),[21],-0.988
same,glycan array binding signal (z-score),[22],-1.08
same,glycan array binding signal (z-score),[23],0.314
same,glycan array binding signal (z-score),[24],1.43
same,glycan array binding signal (z-score),[25],-0.222
same,glycan array binding signal (z-score),[26],-0.067
same,glycan array binding signal (z-score),GlcNAc(b1-3)Fuc,0.901
same,glycan array binding signal (z-score),GlcNAc(b1-3)Gal,-1.21
same,glycan array binding signal (z-score),[27],0.291

# Looked up one by one from the list above:
binder,measurement,setting,value
Aap brpt (Staphylococcus epidermidis) (protein) VDGDPITSTEEIPFDKKREFDPNLAPGTEKVVQKGEPGTKTITTPTTKNPLTGEKVGEGEPTEKITKQPVDEIVHYGGEEIKTGHKDEFDPNAPKGSQTTQPGKPGVKNPDTGEVVTPPVDDVTKYGPVDGDPITSTEEIPFDKKREFDPNLAPGTEKVVQKGEPGTKTITTPTTKNPLTGEKVGEGEPTEKITKQPVDEIVHYGGEEIKPGHKDEFDPNAPKGSQEDVPGKPGVKNPDTGEVVTPPVDDVTKYGPVDGDSITSTEEIPFDKKREFDPNLAPGTEKVVQKGEPGTKTITTPTTKNPLTGEKVGEGEPTEKITKQPVDEIVHYGGEQIPQGHKDEFDPNAPVDSKTEVPGKPGVKNPDTGEVVTPPVDDVTKYGPVDGDSITSTEEIPFDKKREFDPNLAPGTEKVVQKGEPGTKTITTPTTKNPLTGEKVGEGKSTEKVTKQPVDEIVEYGPTK,glycan array binding signal (z-score),[4],0.61
same,glycan array binding signal (z-score),[25],-0.222
